Experimental data published in doi:10.1101/2025.09.22.677877.
Where two headings read alike, the source gives them in different places. These are yes or no findings as the source states them, for the method shown. For part of these data: In cells and extracts the contact can be indirect. Some binding calls cover weakened binding; strength is not graded here. For part of these data: Where a sequence is shown, tags or fusion partners need not be part of it.

By UniProt entry, the sequences of proteins in these tests, tags left out. Where a name states a change or a piece, a line headed by the entry shows the natural chain unless it says otherwise. Residues count along the entry.
UniProt Q84TH9, whole entry: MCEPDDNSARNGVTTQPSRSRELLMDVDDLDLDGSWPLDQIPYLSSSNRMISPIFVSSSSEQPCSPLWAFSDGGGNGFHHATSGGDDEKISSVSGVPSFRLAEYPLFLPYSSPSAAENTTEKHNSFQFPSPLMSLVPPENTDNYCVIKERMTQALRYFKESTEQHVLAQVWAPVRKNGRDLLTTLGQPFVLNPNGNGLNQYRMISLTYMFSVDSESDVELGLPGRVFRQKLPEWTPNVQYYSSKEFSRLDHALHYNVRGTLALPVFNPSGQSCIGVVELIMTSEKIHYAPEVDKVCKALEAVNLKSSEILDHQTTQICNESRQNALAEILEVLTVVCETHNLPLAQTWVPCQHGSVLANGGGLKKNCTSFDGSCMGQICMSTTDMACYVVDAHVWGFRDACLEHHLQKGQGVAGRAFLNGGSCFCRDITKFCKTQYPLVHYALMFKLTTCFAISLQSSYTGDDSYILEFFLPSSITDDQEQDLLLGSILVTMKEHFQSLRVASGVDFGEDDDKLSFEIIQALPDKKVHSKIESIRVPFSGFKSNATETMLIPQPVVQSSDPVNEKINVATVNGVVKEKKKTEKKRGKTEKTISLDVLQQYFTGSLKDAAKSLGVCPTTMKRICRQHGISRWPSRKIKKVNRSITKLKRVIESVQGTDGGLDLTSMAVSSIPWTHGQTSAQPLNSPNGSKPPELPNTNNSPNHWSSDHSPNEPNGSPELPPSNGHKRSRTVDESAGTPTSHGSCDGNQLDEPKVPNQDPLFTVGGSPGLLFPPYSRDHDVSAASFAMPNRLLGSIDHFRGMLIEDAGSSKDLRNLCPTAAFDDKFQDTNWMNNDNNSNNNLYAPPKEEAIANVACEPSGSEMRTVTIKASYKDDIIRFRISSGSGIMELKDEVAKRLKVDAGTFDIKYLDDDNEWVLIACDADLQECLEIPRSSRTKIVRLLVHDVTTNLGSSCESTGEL
UniProt Q84TH9, 1-863, stated change not applied: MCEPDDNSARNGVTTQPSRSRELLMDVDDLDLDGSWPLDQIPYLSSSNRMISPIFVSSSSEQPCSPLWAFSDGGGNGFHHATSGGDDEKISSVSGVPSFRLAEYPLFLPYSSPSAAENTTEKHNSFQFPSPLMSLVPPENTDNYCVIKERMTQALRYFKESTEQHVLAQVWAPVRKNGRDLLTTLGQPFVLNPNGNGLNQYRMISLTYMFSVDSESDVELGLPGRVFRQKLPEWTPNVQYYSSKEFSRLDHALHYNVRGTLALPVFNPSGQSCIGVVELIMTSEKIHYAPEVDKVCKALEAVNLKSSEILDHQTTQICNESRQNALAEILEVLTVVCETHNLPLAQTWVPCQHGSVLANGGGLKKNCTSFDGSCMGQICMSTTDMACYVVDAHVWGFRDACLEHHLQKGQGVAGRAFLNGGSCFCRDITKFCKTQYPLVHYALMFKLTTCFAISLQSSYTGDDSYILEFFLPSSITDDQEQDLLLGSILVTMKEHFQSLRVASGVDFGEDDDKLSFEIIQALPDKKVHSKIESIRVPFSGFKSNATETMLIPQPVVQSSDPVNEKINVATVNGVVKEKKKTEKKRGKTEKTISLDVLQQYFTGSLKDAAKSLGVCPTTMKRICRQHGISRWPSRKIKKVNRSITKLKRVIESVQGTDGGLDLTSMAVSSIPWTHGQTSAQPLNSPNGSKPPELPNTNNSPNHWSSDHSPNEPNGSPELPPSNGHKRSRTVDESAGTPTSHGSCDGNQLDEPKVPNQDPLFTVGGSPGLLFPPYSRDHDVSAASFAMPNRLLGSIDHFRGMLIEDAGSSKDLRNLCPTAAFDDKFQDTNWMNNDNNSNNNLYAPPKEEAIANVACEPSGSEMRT
UniProt F4ID16, whole entry: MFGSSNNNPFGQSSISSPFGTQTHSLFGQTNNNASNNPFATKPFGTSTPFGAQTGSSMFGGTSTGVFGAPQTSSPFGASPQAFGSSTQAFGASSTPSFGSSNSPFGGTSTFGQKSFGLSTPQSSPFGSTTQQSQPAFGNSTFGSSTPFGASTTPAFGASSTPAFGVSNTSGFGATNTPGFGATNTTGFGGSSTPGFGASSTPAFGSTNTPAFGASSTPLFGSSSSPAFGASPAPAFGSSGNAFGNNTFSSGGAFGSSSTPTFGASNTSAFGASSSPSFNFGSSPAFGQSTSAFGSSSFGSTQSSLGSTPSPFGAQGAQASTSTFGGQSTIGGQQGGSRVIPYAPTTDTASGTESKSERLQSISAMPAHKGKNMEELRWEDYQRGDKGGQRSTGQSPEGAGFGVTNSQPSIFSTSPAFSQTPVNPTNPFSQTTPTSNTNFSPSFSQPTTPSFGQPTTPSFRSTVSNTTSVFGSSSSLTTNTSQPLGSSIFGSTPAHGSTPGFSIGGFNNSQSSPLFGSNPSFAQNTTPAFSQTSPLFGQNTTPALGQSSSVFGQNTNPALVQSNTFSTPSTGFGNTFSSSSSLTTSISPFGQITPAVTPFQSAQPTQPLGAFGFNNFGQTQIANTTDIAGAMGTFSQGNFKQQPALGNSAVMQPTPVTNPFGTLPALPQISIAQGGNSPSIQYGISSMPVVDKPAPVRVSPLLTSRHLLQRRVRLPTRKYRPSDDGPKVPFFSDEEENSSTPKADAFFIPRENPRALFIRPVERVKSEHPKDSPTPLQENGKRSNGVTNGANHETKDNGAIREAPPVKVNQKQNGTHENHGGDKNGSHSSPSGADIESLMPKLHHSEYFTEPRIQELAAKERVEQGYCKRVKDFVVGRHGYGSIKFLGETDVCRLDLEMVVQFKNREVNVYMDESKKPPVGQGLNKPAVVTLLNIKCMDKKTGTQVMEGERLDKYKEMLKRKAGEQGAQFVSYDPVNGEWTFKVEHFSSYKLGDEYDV

What was measured:
[1] = molecular target: CYFP-NLP7 (Arabidopsis thaliana (Columbia accession)) (UniProt Q84TH9); assay: split reporter
[2] = molecular target: full-length NLP7 protein (bait of the Hybrigenics yeast two-hybrid screen) (Arabidopsis thaliana) (UniProt Q84TH9); assay: two-hybrid
[3] = molecular target: NLP7 fused with the binding domain (BD) (Arabidopsis thaliana (Columbia accession)) (UniProt Q84TH9); assay: two-hybrid
[4] = molecular target: CYFP-NLP7 (Arabidopsis thaliana (Columbia accession)) (UniProt Q84TH9); assay: split reporter; remark: listed apart in the source
[5] = molecular target: NLP7ΔGAF (NLP7 without the predicted GAF domain) (Arabidopsis thaliana (Columbia accession)) (UniProt Q84TH9); assay: split reporter
[6] = molecular target: NLP7ΔPB1 (NLP7 without PB1 domain) (Arabidopsis thaliana (Columbia accession)) (UniProt Q84TH9); assay: split reporter

NUP98B (split-YFP fusion for BiFC) (from UniProt F4ID16 1-997)
binding [1]: binds

B1: NUP98A (found in the Hybrigenics yeast two-hybrid screen) (protein, UniProt Q8RY25 1-1041)
chain: MFGSSNPFGQSSGTSPFGSQSLFGQTSNTSSNNPFAPATPFGTSAPFAAQSGSSIFGSTSTGVFGAPQTSSPFASTPTFGASSSPAFGNSTPAFGASPASSPFGGSSGFGQKPLGFSTPQSNPFGNSTQQSQPAFGNTSFGSSTPFGATNTPAFGAPSTPSFGATSTPSFGASSTPAFGATNTPAFGASNSPSFGATNTPAFGASPTPAFGSTGTTFGNTGFGSGGAFGASNTPAFGASGTPAFGASGTPAFGASSTPAFGASSTPAFGASSTPAFGGSSTPSFGASNTSSFSFGSSPAFGQSTSAFGSSAFGSTPSPFGGAQASTPTFGGSGFGQSTFGGQQGGSRAVPYAPTVEADTGTGTQPAGKLESISAMPAYKEKNYEELRWEDYQRGDKGGPLPAGQSPGNAGFGISPSQPNPFSPSPAFGQTSANPTNPFSSSTSTNPFAPQTPTIASSSFGTATSNFGSSPFGVTSSSNLFGSGSSTTTSVFGSSSAFGTTTPSPLFGSSSTPGFGSSSSIFGSAPGQGATPAFGNSQPSTLFNSTPSTGQTGSAFGQTGSAFGQFGQSSAPAFGQNSIFNKPSTGFGNMFSSSSTLTTSSSSPFGQTMPAGVTPFQSAQPGQASNGFGFNNFGQNQAANTTGNAGGLGIFGQGNFGQSPAPLNSVVLQPVAVTNPFGTLPAMPQISINQGGNSPSIQYGISSMPVVDKPAPVRISSLLTSRHLLHRRVRLPARKYRPGENGPKVPFFTDDEESSSTPKADALFIPRENPRALVIRPVQQWSSRDKSILPKEQRPTAPLHDNGKSPDMATDAANHDRNGNGELGATGERIHTSVNANQKPNGTTRSDQASEKERPYKTLSGHRAGEAAIVYEHGADIEALMPKLRQSDYFTEPRIQELAAKERADPGYCRRVRDFVVGRHGYGSIKFMGETDVRRLDLESLVQFNTREVIVYMDESKKPAVGQGLNKPAEVTLLNIKCIDKKTGKQFTEGERVEKYKMMLKKKAEAQGAEFVSFDPVKGEWKFRVEHFSSYKLGDEDEEDGV
binding [2]: binds

B2: NUP98A fused with the DNA activation domain (AD) (protein, UniProt Q8RY25 1-1041)
chain: B1 chain
binding [3]: binds

B3: NYFP-NUP98A (protein, UniProt Q8RY25 1-1041)
chain: B1 chain
binding [4]: binds
binding [5]: binds
binding [6]: binds
